Experimental data published in doi:10.1101/558387.
Results are given in words; binding and its absence hold for the method and conditions named. A result given as binding can be weak or reduced; the word gives no strength. Tags and fused reporters may be left off the sequences shown. For part of these data: Binding seen in cells or lysates may run through a third protein. Blank lines part the entries; values can stand above or below the binder they belong to.

Assays:
[1] = molecular target: PRH1 fused to the GAL4 DNA binding domain (pGBKT7-PRH1) (Arabidopsis thaliana) (UniProt Q39186); test: two-hybrid
[2] = molecular target: PRH1 fused to the N-terminal half of YFP (PRH1-YFP^N) (Arabidopsis thaliana); test: split reporter
[3] = molecular target: C-terminal Myc-tagged full length PRH1 (PRH1-Myc) (Arabidopsis thaliana); test: co-IP

binding [1]: binds
B1: GATA23 fused to the GAL4 activation domain (pGADT7-GATA23) (protein, UniProt Q8LC59 1-120)
chain: MDPRKLLSCSSSYVSVRMKEEKGTIRCCSECKTTKTPMWRGGPTGPKSLCNACGIRHRKQRRSELLGIHIIRSHKSLASKKINLLSSSHGGVAVKKRRSLKEEEQAALCLLLLSCSSVLA

binding [2]: binds
B2: GATA23 fused to the C-terminal half of YFP (GATA23-YFP^C) (protein, UniProt Q8LC59 1-120)
chain: B1 chain

binding [3]: binds
B3: C-terminal GFP-tagged full length GATA23 (GATA23-GFP) (protein, UniProt Q8LC59 1-120)
chain: B1 chain
